Data from PubChem BioAssay AID2685 (National Center for Advancing Translational Sciences (NCATS), 2010).
Some of the results follow. These are further read-outs of the screen, such as a control signal, another cell line or another target. No call is given for them. Compounds called inactive in the main read-out are mostly missing here. Words in brackets tell the shape of the fitted curve; partial curves, single points and poor fits give uncertain potencies.

Assay: qHTS Assay for Lipid Storage Modulators in Drosophila S3 Cells;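 on cell number change: cells counted by Cell Tracker Red CMTPX staining in the red channel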
Conditions: BODIPY lipid droplet fluorescence, 18-24 h; for cell number change: measured here: cell count max response, cells fed with added oleic acid
Procedure, shortened: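 Drosophila S3 cells loaded with oleic acid (400 uM, as added) and compounds at several concentrations; lipid droplets imaged by 488-nm laser-scanning cytometry, 500–530 nm intensity and object ratio to cell channel. Percent activity normalized to 20 uM Triacsin C.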

[1] = measured here: cell number channel AC50, cells fed with added oleic acid
[2] = measured here: lipid fluorescence (Fed channel) AC50, cells fed with added oleic acid

SMILES	cell number change	AC50 [1]	AC50 [2]
C/C=C/C(=O)OCC(=O)NC(=O)NC(C)C	-36.7%	0.00461 µM [falling, full curve, poor fit]	25.9 µM [falling, partial curve]
Cc1ccccc1C1=NC(c2ccc(F)cc2F)ON1 (stereo not drawn)	18.9%		6.51 µM [rising, single point]
Cc1cc(C(C)(C)C)oc1C(=O)N1CCN(C(=O)c2oc(C(C)(C)C)cc2C)CC1	-9.59%		18.4 µM [falling, single point]
Cc1cccc(-n2cc(C(=O)O)c(=O)cc2C)c1		0.58 µM [falling, single point]	0.58 µM [falling, single point]
COc1ccc2c3c([nH]c2c1)C(C)N(CCC(=O)NN)CC3 (stereo not drawn)	31.6%		6.51 µM [rising, single point]
S=C(c1ccc2c(c1)OCO2)N1CCCCCC1	5.34%	3.66 µM [falling, single point]	6.51 µM [falling, single point]
Cc1c(/C=C/C(=O)c2ccc(Cl)s2)cnn1C	-26%		29.1 µM [falling, single point]
CCOc1ccc(N(C(C)C(=O)N/N=C(\C)C(C)(C)C)S(C)(=O)=O)cc1 (stereo not drawn)	1.36%		1.64 µM [falling, partial curve]
COc1ccc(Cc2nnc(NC(=O)CSc3ccc(C)cc3)s2)cc1	-33.3%	1.84 µM [falling, single point]	4.61 µM [falling, full curve, poor fit]
CCCn1c(=O)[nH]c(=O)c2c(C(=O)OCC)cc(-c3cccs3)nc21			0.231 µM [falling, partial curve, poor fit]
Cc1nn(-c2ccccc2)c(Cl)c1C(=O)NC1CCCCC1	1.62%		18.4 µM [rising, single point]
CC1CCN(S(=O)(=O)c2ccc(NC(=O)CCN3C(=O)c4ccccc4C3=O)cc2)CC1	-36.5%	0.517 µM [falling, full curve, poor fit]	7.31 µM [falling, partial curve]
COc1cc(/C=C/C(=O)OCC(=O)Nc2ccc(S(N)(=O)=O)cc2)ccc1O	11.1%		0.92 µM [rising, full curve, poor fit]
O=C(OCCN1C(=O)c2ccccc2C1=O)c1cnccn1	8.12%		0.517 µM [rising, full curve]
CSc1ccc(Cl)c(C(=O)NNC(=O)c2csc(N3CCOCC3)n2)c1	-21.5%		
O=S(=O)(c1ccc(Cl)cc1)N1CCCC(c2nc(-c3ccc(F)cc3)no2)C1 (stereo not drawn)	-13.5%		29.1 µM [falling, single point]
Cc1ccc(CNC(=O)C2CCC(=O)N2C(C)C)cc1 (stereo not drawn)	25.5%		8.2 µM [rising, partial curve]
O=C(Nc1ccccc1N1CCOCC1)c1ccc2c(c1)OCO2	2.79%		
Cc1ccc(C(C(=O)NC(C)(C)C)N(Cc2ccc3c(c2)OCO3)C(=O)c2ccc(CN3CCOCC3)o2)o1 (stereo not drawn)	-39.1%	16.4 µM [falling, partial curve]	9.2 µM [falling, partial curve]

SMILES	cell number change	AC50 [1]	AC50 [2]
CCc1ccc(OCC(=O)Oc2ccc([N+](=O)[O-])cc2)cc1	-0.293%		29.1 µM [rising, single point]
COc1ccc(-n2c(=S)[nH]c3cc(C(=O)NCc4cccnc4)ccc3c2=O)cc1	23.5%		
O=C(CCc1ccccc1)Nc1cccc(-c2nnc(-c3ccco3)o2)c1	55.3%		
O=C(Nc1ccc(S(=O)(=O)Nc2cnc3ccccc3n2)cc1)c1cc(F)c(F)cc1Cl	-10.3%		
COCCNc1nc(N2CCCCC2)c2cnn(C)c2n1	-18.8%		
COCCN(C(=O)CCSc1ccc(F)cc1)c1c(N)n(Cc2ccccc2)c(=O)[nH]c1=O	0.259%		0.517 µM [falling, single point]
O=C1C(Cl)=C(NCCCO)C(=O)c2ccccc21	-8.48%		
CC(OC(=O)c1ccccc1NCCO)C(=O)Nc1ccnn1C(C)C (stereo not drawn)	-1.17%		0.0116 µM [falling, full curve, poor fit]
Cc1cccc(C)c1NC(=S)N(CCN(C)C)C(C)c1cccnc1 (stereo not drawn)	18.9%	0.651 µM [rising, full curve, poor fit]	0.116 µM [rising, full curve, poor fit]
O=C(Nc1ccc(C(=O)O)cc1)/C(=C\c1ccc2c(c1)OCO2)NC(=O)c1ccco1	-7.05%	0.206 µM [falling, full curve, poor fit]	
COc1ccc(F)cc1C(=O)C1CCCN(C(=O)C2=C(C)OCCO2)C1 (stereo not drawn)	-32.3%	29.1 µM [falling, single point]	32.6 µM [falling, single point]
Cc1ccc(CC2C(=O)N(c3nc(C)cc(C)n3)C(=O)C2C)cc1 (stereo not drawn)	43.1%		
CCn1c(=O)c2cc(S(=O)(=O)NCCOc3ccccc3)ccc2n(CC)c1=O		6.51 µM [rising, single point]	
Cc1cc(C)cc(N(C(=O)c2ccco2)C(C(=O)NC2CCCC2)c2ccncc2)c1 (stereo not drawn)			6.51 µM [rising, single point]
O=C(CCNc1n[nH]c(=O)[nH]c1=O)N/N=C/c1ccccc1Br	3.01%		0.731 µM [rising, single point]
Cc1cc(NC(=O)CCC(=O)N(c2ccccc2)C(C(=O)NC2CCCC2)c2ccc(F)cc2)no1 (stereo not drawn)	23.9%		6.51 µM [falling, single point]
O=C(O)/C=C/c1ccc(S(=O)(=O)Nc2cccnc2)cc1	14.5%		0.13 µM [rising, full curve, poor fit]
CCOC(=O)C1CCCN(C(=O)C(C)Oc2ccc(Cl)cc2Cl)C1 (stereo not drawn)	16.1%	3.26 µM [rising, single point]	6.51 µM [rising, single point]
CCCn1nnnc1SCC(=O)NCc1ccccc1	0.442%		4.61 µM [falling, partial curve, poor fit]

Rewritten as comma-separated lines: part of the list above.
SMILES,cell number change,AC50 [1],AC50 [2]
COc1cc(/C=C/C(=O)OCC(=O)Nc2ccc(S(N)(=O)=O)cc2)ccc1O,11.1%,,"0.92 µM [rising, full curve, poor fit]"
Cc1ccc(CNC(=O)C2CCC(=O)N2C(C)C)cc1 (stereo not drawn),25.5%,,"8.2 µM [rising, partial curve]"
